By UniProt entry, the sequences of proteins in these tests, tags left out. Where a name states a change or a piece, a line headed by the entry shows the natural chain unless it says otherwise.
UniProt P61517: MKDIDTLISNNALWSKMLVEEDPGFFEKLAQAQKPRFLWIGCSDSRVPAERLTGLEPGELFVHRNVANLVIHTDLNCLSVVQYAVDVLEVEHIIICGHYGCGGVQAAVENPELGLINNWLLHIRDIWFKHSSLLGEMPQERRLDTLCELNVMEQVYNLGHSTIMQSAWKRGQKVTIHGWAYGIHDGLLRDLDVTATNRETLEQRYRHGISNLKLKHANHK
UniProt P0A9W9: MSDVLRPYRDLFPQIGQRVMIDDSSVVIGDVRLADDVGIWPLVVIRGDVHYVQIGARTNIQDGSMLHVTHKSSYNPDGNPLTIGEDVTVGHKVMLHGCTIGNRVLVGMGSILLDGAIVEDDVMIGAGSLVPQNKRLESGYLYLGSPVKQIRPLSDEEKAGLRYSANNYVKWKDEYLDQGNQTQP

According to publication PMC8955975, “Pyrazolo[4,3-c]pyridine Sulfonamides as Carbonic Anhydrase Inhibitors: Synthesis, Biological and In Silico Studies” (Pharmaceuticals, 2022):

Columns and labels:
[1] = target: β-CA from E. coli (Escherichia coli, UniProt P61517); experiment: stopped-flow CO2 hydrase assay, E. coli β-CA; type: biochemical; conditions: mean from 3 different assays
Description: An Applied PhotoPhysics stopped-flow instrument was used for assaying the CA-catalyzed CO2 hydration activity. […] The CO2 concentrations ranged from 1.7 to 17 mM for the determination of the kinetic parameters and inhibition constants. […] However, the background activity from the uncatalyzed reaction was always subtracted when IC50 values were obtained by using the data analysis software for the stopped-flow instrument. Enzyme concentrations ranged between 5 and 10 nM. For each inhibitor, at least six traces of the initial 5–10% of the reaction were used for determining the initial velocity. The uncatalyzed rates were determined in the same manner and subtracted from the total observed rates. Stock solutions of the inhibitor (0.1 mM) were prepared in distilled–deionized water, and dilutions up to 0.01 nM were carried out thereafter with the assay buffer. Inhibitor and enzyme solutions were preincubated together for 15 min at room temperature prior to the assay to allow for the formation of the E–I complex. The inhibition constants were obtained by nonlinear least-squares methods using PRISM 3 and the Cheng–Prusoff equation, as reported earlier, and represent the mean from at least three different determinations. All CA isoforms were recombinant proteins obtained in house, as reported earlier.

[2] = target: γ-CA from E. coli (Escherichia coli, UniProt P0A9W9); type: biochemical; conditions: stopped-flow CO2 hydrase assay; mean from 3 different assays

With CC(=O)Nc1nnc(S(N)(=O)=O)s1 [AAZ, acetazolamide, reference compound] the Ki [1] was 227 nM and the Ki [2] was 248 nM.
